PubChem BioAssay AID445 (National Center for Advancing Translational Sciences (NCATS), 2006)
Some of the results follow. Further columns of the screen follow, without active or inactive calls. Compounds called inactive in the main read-out are mostly missing here. Words in brackets tell the shape of the fitted curve; partial curves, single points and poor fits give uncertain potencies.

Assay: IkB Signaling
Conditions: ABC-DLBCL IkBa-CBG/CBR dual luciferase ratio (green luciferase fused to IkBa over red control in OCI-Ly3 lymphoma cells), 4 h; measured here: control luc red channel unless noted
Outline: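 In this assay, an IκBα–CBG68 fusion accumulates when IKK-driven degradation is blocked; native CBR normalizes for cell number. OCI-Ly3 cells were treated 4 h with compound and doxycycline, then green and red light read after Chroma-Glo addition.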

SMILES | AC50
CC(C)OCCCN1C(=O)c2[nH]nc(-c3ccccc3O)c2C1c1ccc(OCc2ccccc2)cc1 (configuration not stated) | 15.8 µM [falling, partial curve]
Cc1ccc(CC(=O)Nc2c(C(=O)N3CCN(c4ccccc4F)CC3)oc3ccccc23)cc1 | 25.1 µM [falling, single point]
Cc1ccc(NS(=O)(=O)c2ccc3c(c2)NC(=O)CCS3)c(Br)c1 | 3.16 µM [falling, single point]
CCOCCCNC(=O)CCc1nnc2ccc(N3CCN(c4cccc(OC)c4)CC3)nn12 | 25.1 µM [falling, partial curve, poor fit]
CCn1nc(-c2ccccc2)c(-c2ccccc2)c(C(=O)OCCOC)c1=O | 0.2 µM [rising, partial curve]
Cc1oc(-c2ccccc2)nc1CNC(=O)Nc1ccccc1 | 31.6 µM [falling, single point]
CC1=C(C(=O)OCC2CCCCC2)C(c2c(F)cccc2Cl)CC(=O)N1 (configuration not stated) | 3.16 µM [falling, partial curve, poor fit]
COc1cc(OC)c(NC(=O)Nc2ccccc2OCc2cc(=O)n3cc(C)ccc3n2)cc1Cl | 2.51 µM [falling, full curve]
COCCNC(=O)c1cc(Sc2ccc(F)cc2F)nc2ccccc12 | 15.8 µM [falling, partial curve, poor fit]
O=C(c1ccc2c(c1)N(Cc1ccc(F)cc1)C(=O)c1ccccc1S2(=O)=O)N1CCC(Cc2ccccc2)CC1 | 1 µM [falling, partial curve]
COc1ccc(-n2ccn(Cc3ccc(C)cc3)c(=O)c2=O)cc1OC | 3.98 µM [rising, partial curve]
O=C(CSc1ccc2ccccc2n1)Nc1nsc(-c2ccc(Cl)cc2)n1 | 0.0794 µM [rising, full curve]
COc1ccc(Cn2c(SCc3ccc(C(=O)NCc4ccccc4F)cc3)nc3cccnc32)cc1 | 25.1 µM [falling, single point]
O=C(NCCc1ccccc1)c1c[nH]c2ccc(S(=O)(=O)Nc3ccccc3F)cc2c1=O | 12.6 µM [falling, single point]
COc1ccc(NC(=O)Nc2nnc(N(C)C3CCCCC3)s2)c(OC)c1 | 20 µM [falling, partial curve]
CC1CCN(C(=O)c2cc(-c3ccc(Cl)cc3)on2)CC1 | 0.0631 µM [falling, full curve]
CSc1nc2c(c(-c3ccc(O)cc3)c1C#N)CCC2 | 15.8 µM [falling, partial curve]

Reformatted in CSV form: 2 of the compounds above
SMILES,AC50
COc1cc(OC)c(NC(=O)Nc2ccccc2OCc2cc(=O)n3cc(C)ccc3n2)cc1Cl,"2.51 µM [falling, full curve]"
COCCNC(=O)c1cc(Sc2ccc(F)cc2F)nc2ccccc12,"15.8 µM [falling, partial curve, poor fit]"
